Data as given in article PMC12834145.
These are yes or no findings as the source states them, for the method shown. Binding seen in cells or lysates may run through a third protein. Some results given as binding are weak or reduced against the parent protein; the word gives no strength. Where a sequence is shown, tags or fusion partners need not be part of it. Each block holds one molecule with its values, some of them ahead of it.

Target: T1, HA-IKBKE (UniProt Q14164)
T1 sequence: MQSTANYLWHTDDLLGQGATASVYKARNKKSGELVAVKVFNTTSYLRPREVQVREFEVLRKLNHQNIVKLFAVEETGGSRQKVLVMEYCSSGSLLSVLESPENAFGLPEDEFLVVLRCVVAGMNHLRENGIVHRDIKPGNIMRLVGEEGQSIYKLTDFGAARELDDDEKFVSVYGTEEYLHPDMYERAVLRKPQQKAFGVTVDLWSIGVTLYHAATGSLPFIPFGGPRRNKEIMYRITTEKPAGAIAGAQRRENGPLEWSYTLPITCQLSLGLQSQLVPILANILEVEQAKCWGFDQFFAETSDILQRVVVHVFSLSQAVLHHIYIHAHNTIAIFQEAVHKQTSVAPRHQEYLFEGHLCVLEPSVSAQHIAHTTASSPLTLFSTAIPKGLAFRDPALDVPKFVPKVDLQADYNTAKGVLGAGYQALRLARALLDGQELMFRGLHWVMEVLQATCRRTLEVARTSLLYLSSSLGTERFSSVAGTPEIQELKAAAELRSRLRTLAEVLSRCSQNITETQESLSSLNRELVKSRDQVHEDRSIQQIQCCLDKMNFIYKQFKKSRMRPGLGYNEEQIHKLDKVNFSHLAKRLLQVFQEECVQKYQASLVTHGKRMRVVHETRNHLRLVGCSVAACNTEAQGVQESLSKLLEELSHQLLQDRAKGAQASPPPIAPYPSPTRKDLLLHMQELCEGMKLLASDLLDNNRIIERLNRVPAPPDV
Assay: co-IP

binding: no binding
Molecule: Flag-SQSTM1 (from UniProt Q13501 1-440)

binding: binds
B1: Flag-CALCOCO2 (protein, UniProt Q13137 1-446)
chain: MEETIKDPPTSAVLLDHCHFSQVIFNSVEKFYIPGGDVTCHYTFTQHFIPRRKDWIGIFRVGWKTTREYYTFMWVTLPIDLNNKSAKQQEVQFKAYYLPKDDEYYQFCYVDEDGVVRGASIPFQFRPENEEDILVVTTQGEVEEIEQHNKELCKENQELKDSCISLQKQNSDMQAELQKKQEELETLQSINKKLELKVKEQKDYWETELLQLKEQNQKMSSENEKMGIRVDQLQAQLSTQEKEMEKLVQGDQDKTEQLEQLKKENDHLFLSLTEQRKDQKKLEQTVEQMKQNETTAMKKQQELMDENFDLSKRLSENEIICNALQRQKERLEGENDLLKRENSRLLSYMGLDFNSLPYQVPTSDEGGARQNPGLAYGNPYSGIQESSSPSPLSIKKCPICKADDICDHTLEQQQMQPLCFNCPICDKIFPATEKQIFEDHVFCHSL
